# Data: patent US20050261472A1 (Dyax Corp., priority 1999, published 2005)
# Experiment: general procedure: Fmoc solid-phase peptide synthesis; rink-amide AM resin, 0.8 mmol/g; DIC/HOBt (preformed OBt esters), then HBTU/DIEA (double coupling)
# Conditions: whole synthesis, overall, based on the starting resin substitution level, scale of the general procedure 0.3-0.6 g of resin, one disulfide bridge, sequence written open
substance,measurement,value
Leu-Pro-Cys-Asp-Tyr-Tyr-Gly-Thr-Cys-Leu-Asp,isolated yield,4%
